PubChem BioAssay AID504786 – Drosophila RNAi Screening Center, 2011
Purpose: 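Knock-downs reducing HIF reporter induction by the iron chelator DFO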 (primary screen). System: Drosophila S2 cells with a stable HIF luciferase reporter. Reagent: long dsRNA against Drosophila genes, about 0.2 µg dsRNA per well of a 384-well plate. Duration: three days of knock-down, then 20 h of DFO before reading. Conditions: desferrioxamine (DFO) at 100 µM, an iron chelator that mimics hypoxia, for 20 h. Detection: 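HIF reporter luminescence in cells given 100 µM DFO for 20 h, using the mouse ldh-a hypoxia-response element, scored as per-plate z-scores; higher means greater loss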. Direction: z-score: higher = stronger loss of HIF reporter signal.
The deposit covers about 21,000 reagents; this is an unselected part of those that have a named target and a result. 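Primary screen; positive scores mean lost reporter signal, so the sign may be inverted from the usual convention.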 The numbers tell different reagents against one gene apart. Further read-outs or replicates are left out here. Reagent sequences are not shown.

Ref1 (RNA and export factor binding protein 1) showed z-score, replicate 1 = -0.4. For Ugt305A1 (UDP-glycosyltransferase family 305 member A1) the deposit lists z-score, replicate 1 = -0.3. For CG3165 the deposit lists z-score, replicate 1 = -0.3. Depletion of CG11241 resulted in: z-score, replicate 1 = -0.3. After knock-down of Gdap2 #1, the screen gave z-score, replicate 1 = -0.4. With knock-down of Gdap2 #2, the screen gave z-score, replicate 1 = -0.3.

With knock-down of Oatp74D (Organic anion transporting polypeptide 74D) #1 the results were z-score, replicate 1 = 0.2. Knock-down of Oatp74D (Organic anion transporting polypeptide 74D) #2 gave: z-score, replicate 1 = -0.3. For Cpr65Av (Cuticular protein 65Av), the values are z-score, replicate 1 = -0.3. CG3982 showed z-score, replicate 1 = 2.8. blo (bloated) showed z-score, replicate 1 = -0.4. CG12723 scored z-score, replicate 1 = -0.2.

Knock-down of Gart (GART trifunctional enzyme) resulted in: z-score, replicate 1 = -0.2. Silencing of CG33752 came out at: z-score, replicate 1 = 0. Depletion of CG8664 gave: z-score, replicate 1 = 0.3. CG3823 showed z-score, replicate 1 = -0.2. CG14609 gave z-score, replicate 1 = -0.2. CG3492 showed z-score, replicate 1 = -0.2.

With knock-down of NimC4 (Nimrod C4), the record shows z-score, replicate 1 = -0.4. After knock-down of CR33317 (pseudo), the record shows z-score, replicate 1 = -0.2. After knock-down of nerfin-1 (nervous fingers 1), the record shows z-score, replicate 1 = -0.2. Depletion of COX5BL (Cytochrome c oxidase subunit 5B-like) came out at: z-score, replicate 1 = -0.3. Knock-down of AP-1mu (Adaptor Protein complex 1, mu subunit) gave: z-score, replicate 1 = -0.3. After knock-down of CG12288, the record shows z-score, replicate 1 = 1.6.

Depletion of CG15579 came out at: z-score, replicate 1 = -0.3. Silencing of CG9304 came out at: z-score, replicate 1 = -0.4. After knock-down of Cpr72Eb (Cuticular protein 72Eb) the results were z-score, replicate 1 = -0.2. For CG1344 the deposit lists z-score, replicate 1 = -0.2. Knock-down of yrt (yurt) came out at: z-score, replicate 1 = -0.3. Gr36c (Gustatory receptor 36c) gave z-score, replicate 1 = -0.3.

Diedel3 (Diedel 3) showed z-score, replicate 1 = -0.2. CG31886 scored z-score, replicate 1 = -0.4. Knock-down of SLC5A11 (Sodium/solute co-transporter-like 5A11) resulted in: z-score, replicate 1 = -0.3. For COX7B (Cytochrome c oxidase subunit 7B), the entry reads z-score, replicate 1 = 1.9. mRpS18C (mitochondrial ribosomal protein S18C) scored z-score, replicate 1 = 0.4. Against HSPBAP1 (HSPB1 associated protein 1), the entry reads z-score, replicate 1 = -0.3.

For CG14292, the values are z-score, replicate 1 = -0.3. For CG18135, the entry reads z-score, replicate 1 = -0.2. With knock-down of Edem2 (ER degradation enhancer, mannosidase alpha-like 2) the results were z-score, replicate 1 = -0.1. Silencing of dila (dilatory) resulted in: z-score, replicate 1 = -0.2. Against Obp22a (Odorant-binding protein 22a), the entry reads z-score, replicate 1 = -0.6. Against Grl62c (Gustatory receptor-like 62c) the deposit lists z-score, replicate 1 = -0.2.

For gudu, the values are z-score, replicate 1 = -0.4. Knock-down of CG5687 resulted in: z-score, replicate 1 = 0.1. For Tim8, the entry reads z-score, replicate 1 = -0.1. Against CG17121 the deposit lists z-score, replicate 1 = -0.4. CG34357 #1 scored z-score, replicate 1 = -0.2. CG34357 #2 scored z-score, replicate 1 = 0.2.

After knock-down of CG34357 #3, the record shows z-score, replicate 1 = -0.3. For CG43325, the entry reads z-score, replicate 1 = -0.4. CR34254 (pseudo) showed z-score, replicate 1 = 0.3.
